Data from PubChem BioAssay AID1671190 (National Center for Advancing Translational Sciences (NCATS), 2021).
About 6,100 (1.1%) of roughly 580,000 compounds were called active. The inconclusive results got no clear call from the source; some entries with a clear call stand among them for comparison. The call rests on the fitted dose curve; in most records, active means well fitted inhibition curve with a large enough effect; inconclusive means small, poorly fitted or top-dose-only effect, or another doubt; inactive means no such curve, though single readings can be large or run the other way. Potencies of inconclusive entries are doubtful fits and often do not repeat.

By UniProt entry, the sequences of proteins in these tests, tags left out. Where a name states a change or a piece, a line headed by the entry shows the natural chain unless it says otherwise.
UniProt P18054: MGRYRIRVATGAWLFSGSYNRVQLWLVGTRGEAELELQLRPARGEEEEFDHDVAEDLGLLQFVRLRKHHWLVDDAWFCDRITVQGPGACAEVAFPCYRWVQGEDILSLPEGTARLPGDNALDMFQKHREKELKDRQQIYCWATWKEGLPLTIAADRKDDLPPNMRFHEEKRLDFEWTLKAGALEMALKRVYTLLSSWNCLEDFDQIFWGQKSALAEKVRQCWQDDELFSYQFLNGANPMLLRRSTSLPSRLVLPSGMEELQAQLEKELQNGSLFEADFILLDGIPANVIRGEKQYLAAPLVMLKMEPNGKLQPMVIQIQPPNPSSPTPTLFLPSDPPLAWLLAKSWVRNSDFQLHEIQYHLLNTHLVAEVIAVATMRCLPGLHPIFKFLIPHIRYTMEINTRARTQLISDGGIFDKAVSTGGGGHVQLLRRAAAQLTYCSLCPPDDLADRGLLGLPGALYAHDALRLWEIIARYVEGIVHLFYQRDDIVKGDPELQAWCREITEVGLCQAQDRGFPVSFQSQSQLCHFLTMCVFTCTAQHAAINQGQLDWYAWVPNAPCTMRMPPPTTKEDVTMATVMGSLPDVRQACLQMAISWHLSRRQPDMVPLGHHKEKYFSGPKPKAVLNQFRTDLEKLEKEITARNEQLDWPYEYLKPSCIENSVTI

Target: Polyunsaturated fatty acid lipoxygenase ALOX12 (Homo sapiens) (UniProt P18054)
Test: Primary qHTS assay for inhibitors of human arachidonate 12S-lipoxygenase (ALOX12): Round 2
Settings: purified 12hLO, xylenol orange hydroperoxide absorbance; activity change, negative = inhibition: at 108 µM (top of the series) unless noted
Method in brief: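 Purified human 12hLO (150 nM final) in 25 mM Hepes, 0.01% Triton X-100, pH 7.0 was preincubated 15 min at room temperature with compound. Then 40 uM arachidonic acid was added, 30 min. Hydroperoxide was read by Fe-XO absorbance ratio 573/405 nm.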
On the % scale 0 is the no-effect control and ±100 the full control effect; potency means the concentration at half of the fitted maximal effect.

Row | SMILES | activity change, negative = inhibition | Potency
1 | CCn1c(C)cc(/C=C2/SC(=S)NC2=O)c1C | inactive: -15.7% | –
2 | C[C@@H]1CN([C@@H](C)CO)S(=O)(=O)c2ccc(Br)cc2O[C@H]1CN(C)C(=O)c1cccc(F)c1 | – | inconclusive: 100 µM [inhibitor, single point]
3 | CC(C)OCc1cc(CN2CCN(c3ccccc3)CC2)c(O)c2ncccc12 | – | inconclusive: 20 µM [inhibitor, full curve, poor fit]
4 | CCn1cc(C(=O)O)c(=O)c2cc(F)c(N3CCN(C(=S)NC(=O)c4ccc(F)cc4)CC3)cc21 | – | inconclusive: 35.5 µM [inhibitor, partial curve, poor fit]
5 | CN(CC(=O)Nc1ccc(OC(F)(F)F)cc1)C(=O)/C=C/c1cc2c(cc1[N+](=O)[O-])OCO2 | – | inconclusive: 56.2 µM [inhibitor, partial curve, poor fit]
6 | CCC[C@@H]1CN(C(=O)CCc2c(C)nn(C)c2C)C[C@H]1NS(C)(=O)=O | inactive: -8.19% | –
7 | CN(C)c1ccc(/C=N/n2c(COc3ccccc3)n[nH]c2=S)cc1 | – | inconclusive: 50.1 µM [inhibitor, partial curve, poor fit]
8 | c1cc(SSc2ccncc2)ccn1 | – | active: 6.31 µM
9 | OB1Oc2ccccc2-c2ccccc21 | – | inconclusive: 126 µM [inhibitor, partial curve, poor fit]
10 | O=C(NCC1CCCN1S(=O)(=O)c1cccs1)c1c(F)cccc1F (configuration not stated) | – | inconclusive: 5.01 µM [inhibitor, full curve, poor fit]
11 | CCOC(=O)c1ccc(N2C(=O)c3n[nH]c(-c4ccco4)c3C2c2ccc(F)cc2)cc1 (configuration not stated) | – | inconclusive: 39.8 µM [inhibitor, partial curve, poor fit]
12 | O=[N+]([O-])c1cccc(/C=N/c2nc3c(s2)CCCC3)c1 | – | inconclusive: 79.4 µM [inhibitor, partial curve, poor fit]
13 | C/C(=N/Nc1ccc(S(N)(=O)=O)cc1[N+](=O)[O-])c1cc2ccccc2o1 | – | inconclusive: 5.62 µM [inhibitor, full curve]
14 | COc1ccc(-c2nc(C(C)C)nc3c2CN([S+](=O)([O-])c2cccc(C(F)(F)F)c2)CC3)cc1 | – | inconclusive: 12.6 µM [inhibitor, full curve, poor fit]
15 | Cc1ccc(CN2CC(C(=O)Nc3ncc(C)s3)CC2=O)cc1 (configuration not stated) | – | inconclusive: 56.2 µM [inhibitor, partial curve, poor fit]
16 | S=c1[nH]c(-c2ccccc2)c(-c2ccccc2)[nH]1 | – | inconclusive: 22.4 µM [inhibitor, partial curve, poor fit]
17 | Cc1ccc(NC(=S)NNC(=S)NNc2ccccc2)cc1C | – | active: 39.8 µM
18 | Cc1ccc(-c2csc3n[nH]c(=S)n23)cc1 | – | inconclusive: 3.16 µM [inhibitor, full curve, poor fit]
19 | COc1cc(OC)c2c(-c3cccc(-c4ccc(F)c(Cl)c4)c3)cc(=O)oc2c1 | inactive: -1.81% | –
20 | C=CCC[C@@H](Cc1ccc(F)cc1)C(=O)OC[C@H](Cc1c[nH]c2ccccc12)NC(=O)[C@@H](CC=C)CC(=O)N[C@@H](CO)Cc1ccccc1 | inactive: -16.5% | –
21 | COc1ccc(C2=CC(c3ccc(Cl)cc3)n3cnnc3N2)cc1OC (configuration not stated) | – | inconclusive: 28.2 µM [inhibitor, single point]

Row | SMILES | activity change, negative = inhibition | Potency
22 | Nc1nc(C2CC(NC(=O)CCc3nc4ccc(F)cc4[nH]3)C2)cc(=O)[nH]1 (configuration not stated) | – | inconclusive: 1.12 µM [inhibitor, full curve, poor fit]
23 | Cc1ccc(Nc2nc(-c3ccc(S(=O)(=O)N4CCOCC4)cc3)cs2)cc1 | – | inconclusive: 5.01 µM [inhibitor, full curve]
24 | CC1CC(C)CN(S(=O)(=O)N2CCCC(C(=O)NCCCN3CCOCC3)C2)C1 (configuration not stated) | – | inconclusive: 50.1 µM [inhibitor, partial curve, poor fit]
25 | COc1ccc(CN2C(=O)CSCC2(C)C(=O)NCc2ccccc2)cc1 (configuration not stated) | – | inconclusive: 100 µM [inhibitor, single point]
26 | Cc1cc(=O)[nH]c2nnc(SCc3ccc(Cl)cc3)n12 | inactive: -41% | –
27 | C/C(=N\Nc1ccc([N+](=O)[O-])cc1[N+](=O)[O-])C(C)(C)C(C(=O)O)C(=O)O | – | inconclusive: 4.47 µM [inhibitor, full curve, poor fit]
28 | CCCCN(CC)c1ccc(NS(=O)(=O)c2ccc3c(c2)CCCC3)cc1C(=O)O | – | active: 1.58 µM
29 | Cc1ccc2nc(SCC(=O)Nc3cccc(S(=O)(=O)N(C)C)c3)[nH]c2c1 | inactive: -13% | –
30 | COc1ccc(CN2CCOc3nc(-c4cc5ccccc5o4)ncc3C2=O)cc1 | inactive: -4.97% [at 176 µM] | –
31 | Cc1ccc(-n2nc3c(c2NC(=O)c2cc4ccccc4o2)CS(=O)(=O)C3)cc1 | – | inconclusive: 39.8 µM [inhibitor, partial curve]
32 | COc1ccc(-c2noc([C@@H]3CCCN3C(=O)c3ccc(F)c(Cl)c3)n2)cc1 | – | inconclusive: 56.2 µM [inhibitor, partial curve, poor fit]
33 | Cc1ccc(Cl)cc1-n1ncc2c(N3CCC(C)CC3)ncnc21 | inactive: -15.5% | –
34 | O=C1Nc2cc(Cl)ccc2C(=O)N2CC[C@H](NS(=O)(=O)c3cccs3)[C@@H]12 | – | inconclusive: 50.1 µM [inhibitor, partial curve, poor fit]
35 | Cc1ccc(Nc2nc(NCCO)c3ccccc3n2)cc1C | – | inconclusive: 39.8 µM [inhibitor, partial curve, poor fit]
36 | COc1ccc(NC(=O)c2c(NCc3cccc(F)c3)sc3c2CCCC3)c(OC)c1 | – | inconclusive: 79.4 µM [inhibitor, partial curve, poor fit]
37 | NC(=S)NNc1cccc2cccnc12 | – | inconclusive: 5.01 µM [inhibitor, full curve]
38 | COCCNC(=O)c1cc(-c2ccc(OC)cc2)nc2ccccc12 | – | inconclusive: 28.2 µM [inhibitor, partial curve, poor fit]
39 | Clc1ccc(-c2csc(Nc3ccccc3)[n+]2Cc2ccco2)c(Cl)c1 | – | inconclusive: 39.8 µM [inhibitor, partial curve, poor fit]
40 | COc1ccc(CCNC(=O)CSc2ccc(NC(C)=O)cc2)cc1OC | inactive: -8.99% | –
41 | Cc1oc(-c2ccno2)cc1S(=O)(=O)Nc1cccc2ccccc12 | – | inconclusive: 89.1 µM [inhibitor, partial curve, poor fit]
42 | Cc1ccc(CNC(=O)CO/N=C/c2ccc3c(c2)OCO3)cc1 | inactive: 0.584% | –

Row | SMILES | activity change, negative = inhibition | Potency
43 | CCOc1ccc(-c2nc(SCC(=O)Nc3nccs3)c(-c3ccc(F)cc3)[nH]2)cc1 | inactive: -6.49% | –
44 | O=S(=O)(O)c1cc(O)c2ccc(Nc3ccccc3)cc2c1 | – | active: 17.8 µM
45 | CC(C)(C)c1nnc(NC(=O)COc2ccc3c(c2)OCO3)s1 | – | inconclusive: 100 µM [inhibitor, single point]
46 | O=C(CNc1cccc(S(=O)(=O)N2CCCC2)c1)Nc1cccc(Br)c1 | – | inconclusive: 1.41 µM [inhibitor, full curve, poor fit]
47 | Cc1cc(-c2ccc(S(=O)(=O)N3CCN(c4cc(Cl)ccc4C)CC3)s2)on1 | – | inconclusive: 112 µM [inhibitor, single point]
48 | CCC(=O)Nc1ccc(N2CCC(C)CC2)cc1 | – | inconclusive: 4.47 µM [inhibitor, full curve, poor fit]
49 | O=C(CN1CCOCC1)Nc1ccc(Oc2ccccc2)cc1 | – | inconclusive: 35.5 µM [inhibitor, partial curve, poor fit]
50 | COc1cc(OC)c(CNC2CCCCCC2)cc1Br | inactive: -14% | –
51 | Cc1ccc(-c2nc(NCc3ccc(F)cc3)n(S(C)(=O)=O)n2)cc1 | – | inconclusive: 39.8 µM [inhibitor, partial curve, poor fit]
52 | CC(O)CSc1nc2c(c(=O)[nH]c(=O)n2C)n1Cc1ccccc1Cl (configuration not stated) | – | inconclusive: 112 µM [inhibitor, partial curve, poor fit]
53 | CC(c1ccccc1)N1CC(C(=O)O)CC1=O (configuration not stated) | inactive: -10.4% | –
54 | Cc1ccc2c(c1)C(C[C@H]1CN(C(=O)CC(C)(C)C)CC[C@H]1CC(=O)O)=NCC2 | – | inconclusive: 35.5 µM [inhibitor, full curve, poor fit]
55 | COc1cccc(N2C(=O)NC(=NC3CCCC3)C23CCCN(Cc2ccsc2)C3)c1 (configuration not stated) | – | inconclusive: 100 µM [inhibitor, partial curve, poor fit]
56 | COc1cccc(C2=NOC(C(=O)N3CCN(c4ccccc4)CC3)C2)c1OC (configuration not stated) | – | inconclusive: 28.2 µM [inhibitor, partial curve]
57 | Cc1ccc(Cc2nc3ccccc3nc2SCC(=O)N2CCCCC2C)cc1 (configuration not stated) | – | inconclusive: 100 µM [inhibitor, partial curve, poor fit]
58 | CC(C)c1ccc(CN2C(=O)C(n3ccc4ccccc43)c3ccccc32)cc1 (configuration not stated) | – | inconclusive: 50.1 µM [inhibitor, single point]
59 | CC(=O)OCC1=C(C(=O)O)N2C(=O)[C@@H](NC(=O)Cc3ccccc3)[C@H]2SC1 | – | inconclusive: 35.5 µM [inhibitor, partial curve, poor fit]
60 | Oc1ccc(NCc2ccc(OCc3ccccc3Cl)cc2)cc1 | – | inconclusive: 3.98 µM [inhibitor, full curve, poor fit]
61 | CN(C)c1ccc(CN2CCc3nc(C4CC4)nc(-c4ccc(O)cc4)c3CC2)cc1 | – | inconclusive: 79.4 µM [inhibitor, single point]
62 | N#C/C(=C/c1cccc2c1OCCCO2)c1nc2ccccc2[nH]1 | – | inconclusive: 2.82 µM [inhibitor, full curve, poor fit]

Two entries from above in another layout.
CC(c1ccccc1)N1CC(C(=O)O)CC1=O (configuration not stated)
  activity change, negative = inhibition: inactive: -10.4%
Cc1ccc2c(c1)C(C[C@H]1CN(C(=O)CC(C)(C)C)CC[C@H]1CC(=O)O)=NCC2
  Potency: inconclusive: 35.5 µM [inhibitor, full curve, poor fit]
